Data as given in PubChem BioAssay AID743454 (Peter MacCallum Cancer Centre, 2014)
Aim: 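Knock-downs lowering viability or raising caspase 3/7 activity in vorinostat-treated resistant cells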 (primary screen). System: human HCT116-VR colon cancer cells, selected for vorinostat resistance. Reagents: siRNA pool against human genes, 40 nM siRNA pool. Time to read-out: vorinostat for 24 h, read-out about 72 h after transfection. Treatment: vorinostat at 2.5 µM final. Measurement: 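Two measures, CellTiter-Fluor viability and luminescent caspase 3/7 activity, each as fold change against same-plate mock wells, mean of duplicates, then screen-wide robust z-score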. Scale: viability robust z-score: higher = more viable cells than screen typical; caspase robust z-score: higher = more caspase 3/7 activity than screen typical. Active means: 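a knock-down is a hit when classed RV1 or RV2 for lowered viability, or CA1 or CA2 for caspase activation; those lethal without drug were dropped; hits were retested singly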.
Here is one part, drawn at random, of about 18,000 deposited reagents. 450 of all reagents (2.5%) count as active. 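Single biological run; no consistent viability z cut-off exists, so the class columns, not z-scores, define the calls.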 A number with no mark means an inactive call.

{"target gene":"MTRF1L (GeneID 54516)","PubChem SID":"SID152156533","viability hit class":"no change","caspase hit class":"no change","viability robust z-score":1.52,"caspase robust z-score":-0.52}
{"target gene":"ITPA (GeneID 3704)","PubChem SID":"SID134317894","viability hit class":"no change","caspase hit class":"no change","viability robust z-score":-0.96,"caspase robust z-score":-0.46}
{"target gene":"MS4A15 (GeneID 219995)","PubChem SID":"SID152156005","viability hit class":"no change","caspase hit class":"no change","viability robust z-score":-1.66,"caspase robust z-score":2.66}
{"target gene":"VSIG1 (GeneID 340547)","PubChem SID":"SID152153461","viability hit class":"no change","caspase hit class":"no change","viability robust z-score":0.85,"caspase robust z-score":0.05}
{"target gene":"THAP10 (GeneID 56906)","PubChem SID":"SID134325038","viability hit class":"no change","caspase hit class":"no change","viability robust z-score":0.96,"caspase robust z-score":-1.32}
{"target gene":"IL3RA (GeneID 3563)","PubChem SID":"SID134312922","viability hit class":"no change","caspase hit class":"no change","viability robust z-score":-0.62,"caspase robust z-score":1.64}
{"target gene":"NR2C1 (GeneID 7181)","PubChem SID":"SID135620672","viability hit class":"no change","caspase hit class":"no change","viability robust z-score":1.14,"caspase robust z-score":0.22}
{"target gene":"HPCAL1 (GeneID 3241)","PubChem SID":"SID134321360","viability hit class":"no change (active)","caspase hit class":"CA1 (caspase activation)","viability robust z-score":-0.03,"caspase robust z-score":5.54}
{"target gene":"EEF1A1 (GeneID 1915)","PubChem SID":"SID152154879","viability hit class":"no change","caspase hit class":"no change","viability robust z-score":-2.74,"caspase robust z-score":-0.12}
{"target gene":"VWA5B1 (GeneID 127731)","PubChem SID":"SID135623055","viability hit class":"no change","caspase hit class":"no change","viability robust z-score":0.58,"caspase robust z-score":0.42}
{"target gene":"MYO3B (GeneID 140469)","PubChem SID":"SID152152883","viability hit class":"no change","caspase hit class":"no change","viability robust z-score":0.21,"caspase robust z-score":-1.04}
{"target gene":"ABCA5 (GeneID 23461)","PubChem SID":"SID134310406","viability hit class":"no change","caspase hit class":"no change","viability robust z-score":0.92,"caspase robust z-score":-0.12}
{"target gene":"FBXW9 (GeneID 84261)","PubChem SID":"SID152147275","viability hit class":"no change","caspase hit class":"no change","viability robust z-score":0.86,"caspase robust z-score":-0.18}
{"target gene":"ARSL (GeneID 415)","PubChem SID":"SID152151878","viability hit class":"no change","caspase hit class":"no change","viability robust z-score":0.84,"caspase robust z-score":0.32}
{"target gene":"AKAP11 (GeneID 11215)","PubChem SID":"SID56479223","viability hit class":"no change","caspase hit class":"no change","viability robust z-score":-2.09,"caspase robust z-score":1.68}
{"target gene":"BEND2 (GeneID 139105)","PubChem SID":"SID152155771","viability hit class":"no change","caspase hit class":"no change","viability robust z-score":0.41,"caspase robust z-score":-0.68}
{"target gene":"SCARF2 (GeneID 91179)","PubChem SID":"SID135623344","viability hit class":"no change","caspase hit class":"no change","viability robust z-score":0.06,"caspase robust z-score":-0.04}
{"target gene":"OR52K2 (GeneID 119774)","PubChem SID":"SID152148133","viability hit class":"no change","caspase hit class":"no change","viability robust z-score":0.78,"caspase robust z-score":-0.17}
{"target gene":"TAGLN2 (GeneID 8407)","PubChem SID":"SID135622131","viability hit class":"no change","caspase hit class":"no change","viability robust z-score":-0.04,"caspase robust z-score":-0.65}
{"target gene":"ZNF468 (GeneID 90333)","PubChem SID":"SID135624406","viability hit class":"no change","caspase hit class":"no change","viability robust z-score":1.08,"caspase robust z-score":0.34}
{"target gene":"SMC1B (GeneID 27127)","PubChem SID":"SID152155063","viability hit class":"no change","caspase hit class":"no change","viability robust z-score":0.02,"caspase robust z-score":-1.12}

A portion taken from the entries so far, for reference:
{"target gene":"SCARF2 (GeneID 91179)","PubChem SID":"SID135623344","viability hit class":"no change","caspase hit class":"no change","viability robust z-score":0.06,"caspase robust z-score":-0.04}
{"target gene":"OR52K2 (GeneID 119774)","PubChem SID":"SID152148133","viability hit class":"no change","caspase hit class":"no change","viability robust z-score":0.78,"caspase robust z-score":-0.17}
